PubChem BioAssay AID504764, Drosophila RNAi Screening Center, 2011
The deposit covers about 22,000 reagents; this is a random part of those that have a named target and a result. Over the whole deposit, 403 (1.9%) were called active. 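Unnormalised raw counts per well; ratio z-scores behind the hit calls and whether each hit raises or lowers signal are not deposited.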 No sequences are given here. Not stated in the record: the amount of reagent.

Screen: 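Genome-wide screen for regulators of Notch-driven gene expression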 (primary screen)
System: Drosophila Kc167 cells
Knock-down reagent: long dsRNA against Drosophila genes
Duration: about 5 days (4 days dsRNA, then 24 h after transfection)
Treatment: transfection of constitutively active membrane-tethered Notch lacking the extracellular domain, read 24 h later
Measured: 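Firefly luciferase from an E(spl)m3 reporter with active Notch, plus control-promoter and uninduced reporter wells for normalisation; unnormalised counts, duplicate wells a and b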
Direction: induced reporter light, run 1, well a and induced reporter light, run 1, well b: higher = more light from the Notch target reporter with active Notch; control promoter light, run 1, well a and control promoter light, run 1, well b: higher = more light from the viral control promoter (cell number, transfection, viability); uninduced reporter light, run 1, well a: higher = more light from the Notch target reporter without active Notch
Rule for the call: 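Hit if the duplicate-averaged log2 ratio of induced to control-promoter light gives a plate-wise z beyond ±2, or induced to uninduced beyond ±1.8; weak-control or discordant-duplicate wells dropped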
Meaning of the calls: active = modifier hit (raised or lowered Notch signal); inactive = not a hit

CG3308 [DRSC15474]
- induced reporter light, run 1, well a: 1.58e5
- induced reporter light, run 1, well b: 1.51e5
- control promoter light, run 1, well a: 1.58e5
- control promoter light, run 1, well b: 1.38e5
- uninduced reporter light, run 1, well a: 14690
- activity call: inactive

CG7299 [DRSC03043]
- induced reporter light, run 1, well a: 1.91e5
- induced reporter light, run 1, well b: 2.19e5
- control promoter light, run 1, well a: 1.27e5
- control promoter light, run 1, well b: 1.85e5
- uninduced reporter light, run 1, well a: 24770
- activity call: inactive

CG31099 [DRSC14252]
- induced reporter light, run 1, well a: 1.41e5
- induced reporter light, run 1, well b: 1.33e5
- control promoter light, run 1, well a: 1.69e5
- control promoter light, run 1, well b: 1.47e5
- uninduced reporter light, run 1, well a: 12565
- activity call: inactive

CG13631 [DRSC14632]
- induced reporter light, run 1, well a: 1.75e5
- induced reporter light, run 1, well b: 1.86e5
- control promoter light, run 1, well a: 1.82e5
- control promoter light, run 1, well b: 2.16e5
- uninduced reporter light, run 1, well a: 13335
- activity call: inactive

CG2202 [DRSC19841]
- induced reporter light, run 1, well a: 2.21e5
- induced reporter light, run 1, well b: 2.07e5
- control promoter light, run 1, well a: 2.51e5
- control promoter light, run 1, well b: 2.69e5
- uninduced reporter light, run 1, well a: 14505
- activity call: inactive

CG14367 [DRSC14829]
- induced reporter light, run 1, well a: 2.07e5
- induced reporter light, run 1, well b: 2.13e5
- control promoter light, run 1, well a: 2.12e5
- control promoter light, run 1, well b: 1.95e5
- uninduced reporter light, run 1, well a: 17245
- activity call: inactive

CG17977 [DRSC06700]
- induced reporter light, run 1, well a: 2.25e5
- induced reporter light, run 1, well b: 2.11e5
- control promoter light, run 1, well a: 2.46e5
- control promoter light, run 1, well b: 2.12e5
- uninduced reporter light, run 1, well a: 15370
- activity call: inactive

pum (pumilio) [DRSC12722]
- induced reporter light, run 1, well a: 1.02e5
- induced reporter light, run 1, well b: 1.50e5
- control promoter light, run 1, well a: 1.26e5
- control promoter light, run 1, well b: 1.12e5
- uninduced reporter light, run 1, well a: 10500
- activity call: inactive

pum (pumilio) [DRSC12726]
- induced reporter light, run 1, well a: 2.11e5
- induced reporter light, run 1, well b: 2.21e5
- control promoter light, run 1, well a: 2.64e5
- control promoter light, run 1, well b: 2.48e5
- uninduced reporter light, run 1, well a: 15930
- activity call: inactive

pum (pumilio) [DRSC17037]
- induced reporter light, run 1, well a: 95155
- induced reporter light, run 1, well b: 91965
- control promoter light, run 1, well a: 78020
- control promoter light, run 1, well b: 57765
- uninduced reporter light, run 1, well a: 6870
- activity call: inactive

pum (pumilio) [DRSC17038]
- induced reporter light, run 1, well a: 94790
- induced reporter light, run 1, well b: 96995
- control promoter light, run 1, well a: 76980
- control promoter light, run 1, well b: 72620
- uninduced reporter light, run 1, well a: 5055
- activity call: inactive

pum (pumilio) [DRSC22794]
- activity call: inactive

Inx3 (Innexin 3) [DRSC14857]
- induced reporter light, run 1, well a: 1.91e5
- induced reporter light, run 1, well b: 1.77e5
- control promoter light, run 1, well a: 2.52e5
- control promoter light, run 1, well b: 2.45e5
- uninduced reporter light, run 1, well a: 14785
- activity call: inactive

Fak (Focal adhesion kinase) [DRSC07426]
- induced reporter light, run 1, well a: 1.25e5
- induced reporter light, run 1, well b: 85095
- control promoter light, run 1, well a: 1.18e5
- control promoter light, run 1, well b: 1.20e5
- uninduced reporter light, run 1, well a: 11270
- activity call: inactive

Csl4 [DRSC02944]
- induced reporter light, run 1, well a: 1.25e5
- induced reporter light, run 1, well b: 1.76e5
- control promoter light, run 1, well a: 95010
- control promoter light, run 1, well b: 1.15e5
- uninduced reporter light, run 1, well a: 17745
- activity call: inactive

lncRNA:bxd (bithoraxoid) [DRSC13176]
- induced reporter light, run 1, well a: 96565
- induced reporter light, run 1, well b: 1.22e5
- control promoter light, run 1, well a: 1.27e5
- control promoter light, run 1, well b: 1.54e5
- uninduced reporter light, run 1, well a: 7125
- activity call: inactive

CG1552 [DRSC19665]
- induced reporter light, run 1, well a: 1.30e5
- induced reporter light, run 1, well b: 1.35e5
- control promoter light, run 1, well a: 2.11e5
- control promoter light, run 1, well b: 2.02e5
- uninduced reporter light, run 1, well a: 9710
- activity call: inactive

CG12920 [DRSC06234]
- induced reporter light, run 1, well a: 1.83e5
- induced reporter light, run 1, well b: 1.97e5
- control promoter light, run 1, well a: 3.03e5
- control promoter light, run 1, well b: 2.75e5
- uninduced reporter light, run 1, well a: 19845
- activity call: inactive

Not a retest: 2 of the entries above.
CG3308 [DRSC15474]
- induced reporter light, run 1, well a: 1.58e5
- induced reporter light, run 1, well b: 1.51e5
- control promoter light, run 1, well a: 1.58e5
- control promoter light, run 1, well b: 1.38e5
- uninduced reporter light, run 1, well a: 14690
- activity call: inactive

CG7299 [DRSC03043]
- induced reporter light, run 1, well a: 1.91e5
- induced reporter light, run 1, well b: 2.19e5
- control promoter light, run 1, well a: 1.27e5
- control promoter light, run 1, well b: 1.85e5
- uninduced reporter light, run 1, well a: 24770
- activity call: inactive
